These are yes or no findings as the source states them, for the method shown. Some entries that bind do so weakly or less than the wild type.
Tests used:
[1] = target: Tie1 (human, endogenous) (human) (UniProt P35590); assay: immunohistochemistry, human breast
[2] = target: Tie1 (human, endogenous) (human) (UniProt P35590); assay: immunohistochemistry, normal human skin
[3] = target: recombinant human Tie1-Fc (Tie1 extracellular domain fused to human Fc) (human) (UniProt P35590); assay: SPR (BIAcore), IgG coupled on CM5 chip, Tie1/Fc 12.5-200 nM as analyte
[4] = target: Tie1 (human, endogenous) (human) (UniProt P35590); assay: immunohistochemistry, biotinylated IgG on frozen human tissue sections
[5] = target: V5-tagged full length human Tie1 (pcDNA3-Tie1-V5) expressed in COS1 cells (human) (UniProt P35590); assay: IF, COS1 cells transfected with Tie1-V5
[6] = target: Tie1 (human, endogenous) (human) (UniProt P35590); assay: immunoprecipitation from HUVEC lysate, Western blot with goat anti-Tie1
[7] = target: Tie1 (human, endogenous) (human) (UniProt P35590); assay: WB, HDMEC
[8] = target: mouse Tie1 on mouse endothelial cells (mouse) (UniProt Q06806); assay: immunohistochemistry, biotinylated E3 IgG1 (a,z allotype), 10 µg/ml, on formalin-fixed SW480 xenograft sections
[9] = target: Tie1 (human, endogenous) (human) (UniProt P35590); assay: as above
[10] = target: Tie1 (human, endogenous) (human) (UniProt P35590); assay: immunohistochemistry, human kidney
[11] = target: V5-tagged full length human Tie1 (pcDNA3-Tie1-V5) expressed in COS1 cells (human) (UniProt P35590); assay: WB, COS1 cells transfected with Tie1-V5
[12] = target: Tie1 (human, endogenous) (human) (UniProt P35590); assay: IF, HDMEC
[13] = target: Tie1 (human, endogenous) (human) (UniProt P35590); assay: WB, IP and IF on Tie1-V5 COS1 cells and primary endothelial cells
[14] = target: V5-tagged full length human Tie1 (pcDNA3-Tie1-V5) expressed in COS1 cells (human) (UniProt P35590); assay: as above
[15] = target: Tie1 (human, endogenous) (human) (UniProt P35590); assay: confocal microscopy, biotinylated antibody (10 µg/ml) on fixed HUVEC
[16] = target: Tie1 (human, endogenous) (human) (UniProt P35590); assay: immunohistochemistry, human lung and lung carcinoma

Amino acid sequences for entries named in this document (tags omitted). A change or cut given only in a name is not applied to a line headed by its entry. Residues count along the entry.
UniProt P35590: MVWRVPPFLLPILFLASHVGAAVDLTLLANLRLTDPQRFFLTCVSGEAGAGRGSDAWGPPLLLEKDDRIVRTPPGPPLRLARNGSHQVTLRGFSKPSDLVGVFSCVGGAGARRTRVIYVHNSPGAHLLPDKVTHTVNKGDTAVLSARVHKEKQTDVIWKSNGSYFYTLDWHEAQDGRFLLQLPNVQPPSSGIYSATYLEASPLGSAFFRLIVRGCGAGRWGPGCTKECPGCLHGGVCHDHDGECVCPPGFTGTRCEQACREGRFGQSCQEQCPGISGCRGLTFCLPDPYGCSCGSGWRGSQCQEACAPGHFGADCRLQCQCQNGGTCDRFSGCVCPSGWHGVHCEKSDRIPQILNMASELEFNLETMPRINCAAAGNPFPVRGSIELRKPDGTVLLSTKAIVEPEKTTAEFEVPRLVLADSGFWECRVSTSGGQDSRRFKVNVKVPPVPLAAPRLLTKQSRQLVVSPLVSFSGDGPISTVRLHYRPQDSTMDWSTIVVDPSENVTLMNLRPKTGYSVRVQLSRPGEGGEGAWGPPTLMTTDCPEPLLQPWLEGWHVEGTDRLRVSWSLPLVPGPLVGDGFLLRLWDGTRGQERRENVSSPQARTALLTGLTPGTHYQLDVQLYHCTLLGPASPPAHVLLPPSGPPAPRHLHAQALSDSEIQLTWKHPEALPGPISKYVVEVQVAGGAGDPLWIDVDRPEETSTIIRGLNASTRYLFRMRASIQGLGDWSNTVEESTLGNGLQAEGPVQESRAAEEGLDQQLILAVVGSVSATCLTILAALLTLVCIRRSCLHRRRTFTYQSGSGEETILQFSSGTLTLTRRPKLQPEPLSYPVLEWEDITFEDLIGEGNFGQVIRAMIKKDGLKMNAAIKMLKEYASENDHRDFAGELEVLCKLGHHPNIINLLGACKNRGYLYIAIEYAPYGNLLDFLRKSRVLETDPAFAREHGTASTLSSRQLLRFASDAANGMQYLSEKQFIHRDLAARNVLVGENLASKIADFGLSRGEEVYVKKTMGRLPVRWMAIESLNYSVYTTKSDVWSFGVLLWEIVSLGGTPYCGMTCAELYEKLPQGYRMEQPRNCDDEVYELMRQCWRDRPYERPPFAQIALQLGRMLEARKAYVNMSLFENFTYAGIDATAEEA
UniProt Q06806, residues 23-1134: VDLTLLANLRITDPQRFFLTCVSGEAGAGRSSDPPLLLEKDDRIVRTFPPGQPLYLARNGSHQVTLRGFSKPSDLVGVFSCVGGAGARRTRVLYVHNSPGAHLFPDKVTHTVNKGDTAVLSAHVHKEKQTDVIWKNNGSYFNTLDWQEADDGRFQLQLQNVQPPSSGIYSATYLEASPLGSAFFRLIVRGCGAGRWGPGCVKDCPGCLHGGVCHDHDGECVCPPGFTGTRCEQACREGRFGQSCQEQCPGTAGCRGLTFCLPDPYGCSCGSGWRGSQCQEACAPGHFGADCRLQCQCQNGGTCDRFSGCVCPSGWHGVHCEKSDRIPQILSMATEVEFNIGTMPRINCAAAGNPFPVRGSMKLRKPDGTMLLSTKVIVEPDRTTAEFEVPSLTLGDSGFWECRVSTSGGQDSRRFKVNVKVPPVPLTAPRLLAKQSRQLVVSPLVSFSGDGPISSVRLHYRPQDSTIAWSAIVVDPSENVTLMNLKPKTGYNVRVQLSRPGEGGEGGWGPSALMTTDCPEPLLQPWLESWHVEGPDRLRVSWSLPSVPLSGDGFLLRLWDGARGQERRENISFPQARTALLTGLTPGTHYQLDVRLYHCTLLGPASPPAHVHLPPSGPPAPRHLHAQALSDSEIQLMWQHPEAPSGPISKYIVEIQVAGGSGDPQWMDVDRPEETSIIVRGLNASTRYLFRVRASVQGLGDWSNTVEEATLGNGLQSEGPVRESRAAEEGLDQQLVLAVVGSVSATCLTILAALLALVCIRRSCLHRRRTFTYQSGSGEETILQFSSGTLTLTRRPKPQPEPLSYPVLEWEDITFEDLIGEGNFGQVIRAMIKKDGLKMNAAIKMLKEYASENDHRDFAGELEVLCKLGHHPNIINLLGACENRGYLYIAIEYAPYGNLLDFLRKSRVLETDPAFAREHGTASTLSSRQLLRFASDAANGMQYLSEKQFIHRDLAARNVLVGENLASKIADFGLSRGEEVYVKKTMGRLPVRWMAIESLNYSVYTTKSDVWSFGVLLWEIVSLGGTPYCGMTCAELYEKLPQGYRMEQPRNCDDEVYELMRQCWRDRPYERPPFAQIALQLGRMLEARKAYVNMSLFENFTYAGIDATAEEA

Measured: binding

B1: E3 IgG (parental anti-Tie1 antibody E3) (antibody, V domains shown)
VH: EVQLLESGGGLVQPGGSLRLSCAASGFTFSMYGMVWVRQAPGKGLEWVSVISPSGGNTGYADSVKGRFTISRDNSKNTLYLQVNSLRAEDTAVYYCARAPRGYSYGYYYWGQGTLVTVSS
VL: DIQMTQSPLSLSASVGDRVTITCRASQGIGHYLAWYQQKPGKVPKLLIYTASTLQSGVPSRFSGSGSGTDFTLTINSLQPEDVATYYCQQFNSYPHTFGQGTRLDIK
binds: all assays above

From patent publication US20060057138A1 (published 2006)
